Experimental data taken from patent US20120107317A1, “USE OF CYTOPLASMIC C-MYC FOR REGULATING IMMUNE RESPONSES” (priority 2010, published 2012).
No constants are given. Whether binding was seen depends on the method and setting. In cells and extracts the contact can be indirect. Some results given as binding are weak or reduced against the parent protein; the word gives no strength.

Sequences of proteins named here, by UniProt entry; tags and fusion partners are left off. A change or cut given only in a name is not applied to a line headed by its entry.
UniProt P25963: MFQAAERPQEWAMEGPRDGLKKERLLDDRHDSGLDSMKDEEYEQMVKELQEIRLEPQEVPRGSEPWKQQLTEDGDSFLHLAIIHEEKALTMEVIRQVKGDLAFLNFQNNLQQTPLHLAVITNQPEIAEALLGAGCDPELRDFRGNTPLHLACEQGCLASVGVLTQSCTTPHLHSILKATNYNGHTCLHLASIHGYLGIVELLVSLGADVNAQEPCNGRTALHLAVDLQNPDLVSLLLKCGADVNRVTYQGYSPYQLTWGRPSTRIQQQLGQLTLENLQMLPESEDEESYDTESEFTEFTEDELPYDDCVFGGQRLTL
UniProt P01106: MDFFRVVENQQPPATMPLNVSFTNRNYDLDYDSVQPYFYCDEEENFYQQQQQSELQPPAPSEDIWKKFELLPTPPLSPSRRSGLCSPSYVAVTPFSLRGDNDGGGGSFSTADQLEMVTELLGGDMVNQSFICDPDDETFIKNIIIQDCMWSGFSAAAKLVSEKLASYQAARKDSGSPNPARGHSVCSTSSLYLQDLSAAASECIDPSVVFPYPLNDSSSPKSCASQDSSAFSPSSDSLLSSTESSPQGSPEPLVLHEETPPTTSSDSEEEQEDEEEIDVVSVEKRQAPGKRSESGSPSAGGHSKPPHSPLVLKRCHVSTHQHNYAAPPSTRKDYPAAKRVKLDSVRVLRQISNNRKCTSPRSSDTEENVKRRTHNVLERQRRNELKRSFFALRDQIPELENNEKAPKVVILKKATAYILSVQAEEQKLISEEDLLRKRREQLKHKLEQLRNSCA

How the values were obtained:
[1] = target: IκBα (endogenous protein of primary human blood macrophages) (human) (UniProt P25963); assay: co-immunoprecipitation from PBMac lysates, Western blot
[2] = target: IκBα (endogenous protein of primary human blood macrophages) (human) (UniProt P25963); assay: co-immunoprecipitation with anti-c-Myc antibody from PBMac lysates, Western blot
[3] = target: IκBα (endogenous protein of primary human blood macrophages) (human) (UniProt P25963); assay: reciprocal co-immunoprecipitation with anti-IκBα antibodies from PBMac lysates, Western blot
[4] = target: IκBα (endogenous protein of primary human blood macrophages) (human) (UniProt P25963); assay: co-immunoprecipitation from PBMac lysates, Western blot (FIG. 10 legend)

Measured: binding

c-Myc (endogenous protein of primary human blood macrophages) (from UniProt P01106 16-454)
binds: all assays above
